{"source": "paper doi:10.1101/2021.12.02.470886", "binders": {"B1": {"name": "NAC089-HA (protein, UniProt Q94F58 1-340)", "chain": "MDTKAVGVSKDTAASMEASTVFPGFKFSPTDVELISYYLKRKMDGLERSVEVIPDLEIYNFEPWDLPDKSIVKSDSEWFFFCARGKKYPHGSQNRRATKMGYWKATGKERDVKSGSEVIGTKRTLVFHIGRAPKGERTDWIMHEYCVKGVSLDDAMVVCRVRRNKEYNSGTSQKAPKPNSSAEKHAKVQNGATSSGSPSDWDNLVDFYLAGESGEKLLAEMAESSENLQVDNDEDFFADILRDEIINLDEAVMTGNTPNEVPTLESASMEIRVLPLPNMIDKQMSSLLEERPSQKKKGKDATESLSSCFVGLYSIKSVNKARWDVIIGVVALIAMLFYLE"}}, "target": "NbRZ-1A-GFP (Nicotiana benthamiana)", "assay": "co-IP", "note": "These are yes or no findings as the source states them, for the method shown. Binding seen in cells or lysates may run through a third protein. Tags and fused reporters may be left off the sequences shown."}
{"binder": "B1", "values": [{"measurement": "binding", "value": "no binding"}]}
